Measured values reported in PMC4569712.
Results are given in words; binding and its absence hold for the method and conditions named. In cells and extracts the contact can be indirect. Some entries that bind do so weakly or less than the wild type. For part of these data: Where a sequence is shown, tags or fusion partners need not be part of it.

Sequences of proteins named here, by UniProt entry; tags and fusion partners are left off.
UniProt Q61990: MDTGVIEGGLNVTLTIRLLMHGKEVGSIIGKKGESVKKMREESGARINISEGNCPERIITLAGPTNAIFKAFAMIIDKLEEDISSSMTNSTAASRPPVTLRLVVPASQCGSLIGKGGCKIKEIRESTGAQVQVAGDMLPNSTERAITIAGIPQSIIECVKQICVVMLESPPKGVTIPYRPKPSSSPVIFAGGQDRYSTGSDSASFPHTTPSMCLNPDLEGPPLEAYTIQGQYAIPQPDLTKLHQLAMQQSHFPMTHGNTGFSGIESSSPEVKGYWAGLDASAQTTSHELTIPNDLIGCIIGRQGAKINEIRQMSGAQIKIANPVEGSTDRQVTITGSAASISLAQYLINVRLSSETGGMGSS
UniProt P63280: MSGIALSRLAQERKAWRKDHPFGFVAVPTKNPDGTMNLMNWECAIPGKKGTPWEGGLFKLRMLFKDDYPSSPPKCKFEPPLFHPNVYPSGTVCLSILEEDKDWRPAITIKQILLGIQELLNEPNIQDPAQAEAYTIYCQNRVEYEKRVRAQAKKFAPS

Tests used:
[1] = molecular target: T1, Flag-tagged IRTKS (aa 400–514) (mouse) (UniProt Q9DBJ3); assay: co-IP; MEF cells co-transfected with Flag-tagged truncations and the FL HA-tagged partner; IP with anti-Flag antibody
T1 sequence: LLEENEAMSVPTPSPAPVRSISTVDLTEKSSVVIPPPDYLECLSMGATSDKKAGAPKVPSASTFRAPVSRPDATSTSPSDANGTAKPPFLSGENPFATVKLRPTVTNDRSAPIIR

[2] = molecular target: T2, IRTKS (endogenous, mouse macrophages) (mouse (endogenous in BMDMs and peritoneal macrophages)) (UniProt Q9DBJ3); assay: co-IP
T2 sequence: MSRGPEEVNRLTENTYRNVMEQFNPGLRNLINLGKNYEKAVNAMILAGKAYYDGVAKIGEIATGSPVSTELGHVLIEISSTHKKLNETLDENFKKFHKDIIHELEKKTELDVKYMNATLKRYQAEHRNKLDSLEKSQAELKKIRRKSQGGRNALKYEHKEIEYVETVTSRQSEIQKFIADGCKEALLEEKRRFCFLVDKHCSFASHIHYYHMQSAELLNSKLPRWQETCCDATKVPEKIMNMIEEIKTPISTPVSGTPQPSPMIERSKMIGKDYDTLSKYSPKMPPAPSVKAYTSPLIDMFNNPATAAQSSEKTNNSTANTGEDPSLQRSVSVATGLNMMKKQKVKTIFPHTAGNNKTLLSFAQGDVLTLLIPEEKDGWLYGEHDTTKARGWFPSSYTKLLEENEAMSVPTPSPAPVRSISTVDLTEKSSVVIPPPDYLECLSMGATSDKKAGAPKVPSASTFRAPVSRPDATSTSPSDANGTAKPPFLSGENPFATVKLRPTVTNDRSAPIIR

In the case of “FL HA-tagged PCBP2 (from UniProt Q61990 1-362)”, the binding [1] is reported as “binds”.

For “PCBP2 (endogenous, mouse macrophages) (from UniProt Q61990 1-362)”, the binding [2] was “binds”.

For “Ubc9 (endogenous, mouse peritoneal macrophages) (from UniProt P63280 1-158) (enzyme)”, the binding [2] was “binds”.
